Measurements as given in the supplement of paper PMC10849652.
This is one part of the list.

Chains of the proteins cited; added tags and fusions are not shown. Lines headed by an entry give the natural chain unless they say otherwise; changes in a name come on top.
UniProt P28074: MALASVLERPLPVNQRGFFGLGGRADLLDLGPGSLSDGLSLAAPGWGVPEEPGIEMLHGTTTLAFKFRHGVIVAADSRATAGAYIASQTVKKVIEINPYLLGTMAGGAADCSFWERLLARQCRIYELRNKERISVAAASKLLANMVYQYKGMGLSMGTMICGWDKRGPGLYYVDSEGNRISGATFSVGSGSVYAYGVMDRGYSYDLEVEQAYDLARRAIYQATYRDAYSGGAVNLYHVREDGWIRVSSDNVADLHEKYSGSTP
UniProt Q16401: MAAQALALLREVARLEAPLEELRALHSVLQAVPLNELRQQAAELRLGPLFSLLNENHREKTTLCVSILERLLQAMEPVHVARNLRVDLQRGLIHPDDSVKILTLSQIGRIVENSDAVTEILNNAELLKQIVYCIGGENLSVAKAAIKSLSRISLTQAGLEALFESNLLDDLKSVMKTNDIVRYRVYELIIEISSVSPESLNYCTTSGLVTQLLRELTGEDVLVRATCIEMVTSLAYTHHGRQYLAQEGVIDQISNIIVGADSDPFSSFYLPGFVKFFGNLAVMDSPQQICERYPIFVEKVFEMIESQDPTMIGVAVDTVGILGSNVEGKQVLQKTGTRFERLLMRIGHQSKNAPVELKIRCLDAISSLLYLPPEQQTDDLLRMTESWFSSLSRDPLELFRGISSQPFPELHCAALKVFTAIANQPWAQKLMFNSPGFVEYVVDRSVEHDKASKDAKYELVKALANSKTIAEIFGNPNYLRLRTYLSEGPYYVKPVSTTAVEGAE
UniProt Q8N8N7: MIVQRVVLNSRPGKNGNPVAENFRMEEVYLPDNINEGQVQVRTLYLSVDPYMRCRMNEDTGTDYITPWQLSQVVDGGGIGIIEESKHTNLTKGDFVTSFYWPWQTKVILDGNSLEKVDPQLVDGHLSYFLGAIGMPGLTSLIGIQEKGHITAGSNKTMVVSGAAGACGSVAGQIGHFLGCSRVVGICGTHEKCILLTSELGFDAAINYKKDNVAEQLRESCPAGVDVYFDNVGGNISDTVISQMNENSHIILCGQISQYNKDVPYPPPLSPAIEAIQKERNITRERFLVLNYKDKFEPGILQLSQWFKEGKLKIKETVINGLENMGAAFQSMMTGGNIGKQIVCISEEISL
UniProt O00231, whole entry, looked up: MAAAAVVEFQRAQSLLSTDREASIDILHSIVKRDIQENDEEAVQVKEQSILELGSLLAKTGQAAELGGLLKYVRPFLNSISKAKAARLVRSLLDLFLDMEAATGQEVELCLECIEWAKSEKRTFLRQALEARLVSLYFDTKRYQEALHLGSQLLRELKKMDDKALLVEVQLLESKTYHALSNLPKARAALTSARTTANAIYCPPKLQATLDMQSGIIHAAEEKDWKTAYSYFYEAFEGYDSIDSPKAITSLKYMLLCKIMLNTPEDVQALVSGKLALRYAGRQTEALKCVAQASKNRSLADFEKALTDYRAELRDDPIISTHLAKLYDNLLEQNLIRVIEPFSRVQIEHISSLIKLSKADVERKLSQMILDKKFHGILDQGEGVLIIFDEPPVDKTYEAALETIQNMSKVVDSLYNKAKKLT
UniProt Q03393: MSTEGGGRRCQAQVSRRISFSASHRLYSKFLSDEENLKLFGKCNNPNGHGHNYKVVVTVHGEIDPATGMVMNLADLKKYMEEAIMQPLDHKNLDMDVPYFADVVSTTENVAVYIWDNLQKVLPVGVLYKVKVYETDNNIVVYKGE
UniProt Q14289, whole entry, looked up: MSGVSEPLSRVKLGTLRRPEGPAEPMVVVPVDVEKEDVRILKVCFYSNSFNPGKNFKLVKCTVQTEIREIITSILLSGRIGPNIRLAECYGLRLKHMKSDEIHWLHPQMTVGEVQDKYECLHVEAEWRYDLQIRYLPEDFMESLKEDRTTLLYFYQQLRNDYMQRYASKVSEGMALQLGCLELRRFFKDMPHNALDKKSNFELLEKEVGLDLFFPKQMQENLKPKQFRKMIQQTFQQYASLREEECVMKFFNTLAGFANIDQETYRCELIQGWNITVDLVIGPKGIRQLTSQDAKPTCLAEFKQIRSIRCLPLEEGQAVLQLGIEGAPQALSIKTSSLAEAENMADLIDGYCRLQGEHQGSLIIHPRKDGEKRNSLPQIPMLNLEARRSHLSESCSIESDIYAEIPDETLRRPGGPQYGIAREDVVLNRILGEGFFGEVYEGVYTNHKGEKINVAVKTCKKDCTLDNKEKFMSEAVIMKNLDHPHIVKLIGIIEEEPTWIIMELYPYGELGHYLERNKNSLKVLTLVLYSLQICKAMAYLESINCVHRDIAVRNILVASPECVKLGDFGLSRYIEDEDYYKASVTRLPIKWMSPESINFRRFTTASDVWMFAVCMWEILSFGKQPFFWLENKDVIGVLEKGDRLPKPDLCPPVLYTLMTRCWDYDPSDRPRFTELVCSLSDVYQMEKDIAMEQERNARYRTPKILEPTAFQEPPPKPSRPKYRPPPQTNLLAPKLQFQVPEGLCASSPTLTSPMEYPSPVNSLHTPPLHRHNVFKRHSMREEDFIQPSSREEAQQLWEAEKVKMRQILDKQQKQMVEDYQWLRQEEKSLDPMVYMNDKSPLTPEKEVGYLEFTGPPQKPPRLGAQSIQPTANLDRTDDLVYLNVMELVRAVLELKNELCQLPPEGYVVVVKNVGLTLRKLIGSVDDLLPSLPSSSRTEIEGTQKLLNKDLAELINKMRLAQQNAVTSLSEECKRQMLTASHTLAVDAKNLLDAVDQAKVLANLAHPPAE
UniProt Q15008: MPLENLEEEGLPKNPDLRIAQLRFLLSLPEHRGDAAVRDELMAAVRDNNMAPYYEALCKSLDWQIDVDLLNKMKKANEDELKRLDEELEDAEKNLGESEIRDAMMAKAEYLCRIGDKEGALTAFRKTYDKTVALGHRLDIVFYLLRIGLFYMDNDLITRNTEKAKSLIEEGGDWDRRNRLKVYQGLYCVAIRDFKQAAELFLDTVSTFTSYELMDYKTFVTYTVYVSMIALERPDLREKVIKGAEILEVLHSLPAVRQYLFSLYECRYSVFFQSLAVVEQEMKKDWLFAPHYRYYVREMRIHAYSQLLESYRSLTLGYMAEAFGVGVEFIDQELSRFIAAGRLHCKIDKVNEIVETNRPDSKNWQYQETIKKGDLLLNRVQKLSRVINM
UniProt Q9H0R6: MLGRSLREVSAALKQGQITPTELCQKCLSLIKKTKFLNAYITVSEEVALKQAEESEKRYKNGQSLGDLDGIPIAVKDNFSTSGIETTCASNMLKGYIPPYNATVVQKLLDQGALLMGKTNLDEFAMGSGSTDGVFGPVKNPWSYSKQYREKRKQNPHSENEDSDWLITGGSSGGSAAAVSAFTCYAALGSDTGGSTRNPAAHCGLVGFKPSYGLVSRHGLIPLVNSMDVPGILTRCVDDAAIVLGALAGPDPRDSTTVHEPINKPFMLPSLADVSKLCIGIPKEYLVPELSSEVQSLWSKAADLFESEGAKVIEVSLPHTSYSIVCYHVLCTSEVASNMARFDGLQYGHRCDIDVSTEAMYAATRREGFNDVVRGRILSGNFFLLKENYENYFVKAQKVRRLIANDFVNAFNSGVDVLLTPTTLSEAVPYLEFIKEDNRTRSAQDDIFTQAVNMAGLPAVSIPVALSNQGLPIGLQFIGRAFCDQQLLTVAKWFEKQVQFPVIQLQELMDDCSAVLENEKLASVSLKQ
UniProt P62191: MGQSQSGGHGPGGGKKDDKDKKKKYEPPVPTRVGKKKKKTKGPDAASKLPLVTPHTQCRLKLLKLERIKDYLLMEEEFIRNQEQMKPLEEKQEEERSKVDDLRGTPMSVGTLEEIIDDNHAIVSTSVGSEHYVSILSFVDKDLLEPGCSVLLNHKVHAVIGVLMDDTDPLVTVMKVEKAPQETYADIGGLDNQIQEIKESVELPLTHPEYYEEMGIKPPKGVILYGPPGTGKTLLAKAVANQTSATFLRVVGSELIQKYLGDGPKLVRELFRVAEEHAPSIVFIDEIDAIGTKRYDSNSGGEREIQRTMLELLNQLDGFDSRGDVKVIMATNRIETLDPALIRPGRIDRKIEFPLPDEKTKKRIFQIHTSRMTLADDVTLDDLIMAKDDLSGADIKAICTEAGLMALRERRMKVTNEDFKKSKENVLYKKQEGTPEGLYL
UniProt Q00577: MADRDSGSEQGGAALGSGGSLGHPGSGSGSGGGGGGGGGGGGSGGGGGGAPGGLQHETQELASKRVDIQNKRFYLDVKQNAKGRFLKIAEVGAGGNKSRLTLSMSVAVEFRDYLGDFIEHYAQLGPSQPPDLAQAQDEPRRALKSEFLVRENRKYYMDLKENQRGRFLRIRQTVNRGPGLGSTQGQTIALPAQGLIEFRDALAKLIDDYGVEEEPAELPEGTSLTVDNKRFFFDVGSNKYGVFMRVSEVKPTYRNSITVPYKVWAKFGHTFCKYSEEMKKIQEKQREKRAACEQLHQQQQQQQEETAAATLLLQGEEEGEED
UniProt P28072: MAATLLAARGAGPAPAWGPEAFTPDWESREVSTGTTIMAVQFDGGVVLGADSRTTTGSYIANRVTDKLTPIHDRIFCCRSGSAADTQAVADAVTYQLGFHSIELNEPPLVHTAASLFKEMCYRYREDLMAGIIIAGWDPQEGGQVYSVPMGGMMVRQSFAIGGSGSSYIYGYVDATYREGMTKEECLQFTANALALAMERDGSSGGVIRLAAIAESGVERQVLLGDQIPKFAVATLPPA
UniProt Q8WXF1: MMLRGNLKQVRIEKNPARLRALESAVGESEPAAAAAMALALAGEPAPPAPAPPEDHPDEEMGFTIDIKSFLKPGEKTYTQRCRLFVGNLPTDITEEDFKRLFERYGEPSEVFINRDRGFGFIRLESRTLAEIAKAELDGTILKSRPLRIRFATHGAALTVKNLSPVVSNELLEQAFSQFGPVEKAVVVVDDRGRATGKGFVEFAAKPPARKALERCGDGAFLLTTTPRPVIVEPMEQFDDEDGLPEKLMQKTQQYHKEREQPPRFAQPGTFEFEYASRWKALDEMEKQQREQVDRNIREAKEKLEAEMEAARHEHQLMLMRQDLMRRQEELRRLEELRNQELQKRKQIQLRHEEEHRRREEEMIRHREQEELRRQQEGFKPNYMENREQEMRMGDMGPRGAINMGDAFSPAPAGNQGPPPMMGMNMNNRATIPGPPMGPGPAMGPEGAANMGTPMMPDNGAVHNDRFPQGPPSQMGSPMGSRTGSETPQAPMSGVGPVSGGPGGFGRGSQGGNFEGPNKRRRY
UniProt Q8WUK0: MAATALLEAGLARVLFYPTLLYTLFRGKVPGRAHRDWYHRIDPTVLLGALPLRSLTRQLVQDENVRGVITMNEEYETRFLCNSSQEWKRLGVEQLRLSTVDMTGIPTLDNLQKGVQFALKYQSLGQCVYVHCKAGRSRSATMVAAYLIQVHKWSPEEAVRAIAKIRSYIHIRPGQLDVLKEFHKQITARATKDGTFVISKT
UniProt P28070, whole entry, looked up: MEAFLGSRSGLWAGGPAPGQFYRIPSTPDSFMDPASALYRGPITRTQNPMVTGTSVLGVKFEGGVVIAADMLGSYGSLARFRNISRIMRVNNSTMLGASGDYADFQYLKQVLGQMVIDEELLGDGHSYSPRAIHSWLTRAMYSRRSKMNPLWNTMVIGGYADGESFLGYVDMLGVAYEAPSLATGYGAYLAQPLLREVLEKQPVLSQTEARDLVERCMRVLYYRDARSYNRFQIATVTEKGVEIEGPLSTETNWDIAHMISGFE
UniProt P60484: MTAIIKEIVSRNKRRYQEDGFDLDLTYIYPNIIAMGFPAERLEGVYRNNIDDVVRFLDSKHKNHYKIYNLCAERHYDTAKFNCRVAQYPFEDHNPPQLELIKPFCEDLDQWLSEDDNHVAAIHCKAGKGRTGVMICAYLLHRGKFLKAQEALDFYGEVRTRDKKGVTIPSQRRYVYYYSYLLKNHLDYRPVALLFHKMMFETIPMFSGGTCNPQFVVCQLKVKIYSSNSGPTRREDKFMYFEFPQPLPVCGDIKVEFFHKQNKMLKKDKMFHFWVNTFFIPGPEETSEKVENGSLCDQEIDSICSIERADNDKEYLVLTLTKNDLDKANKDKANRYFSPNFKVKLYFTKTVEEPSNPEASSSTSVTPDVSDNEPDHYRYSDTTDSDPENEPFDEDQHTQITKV
UniProt P43115: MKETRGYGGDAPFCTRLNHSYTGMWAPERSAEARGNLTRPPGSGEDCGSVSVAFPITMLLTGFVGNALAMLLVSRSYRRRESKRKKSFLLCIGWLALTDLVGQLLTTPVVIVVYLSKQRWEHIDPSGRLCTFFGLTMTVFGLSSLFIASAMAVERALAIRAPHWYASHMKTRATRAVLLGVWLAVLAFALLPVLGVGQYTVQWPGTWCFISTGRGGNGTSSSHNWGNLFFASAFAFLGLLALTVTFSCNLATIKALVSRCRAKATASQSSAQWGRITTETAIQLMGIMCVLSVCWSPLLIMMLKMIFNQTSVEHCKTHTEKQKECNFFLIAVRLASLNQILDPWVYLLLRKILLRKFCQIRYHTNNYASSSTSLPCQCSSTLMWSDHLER

How the values were obtained:
Assay in all cases: log2 fold change, soluble protein after heating vs DMSO (PISA); higher = thermal stabilisation; K562 cells, 10 uM, 30 min; active = over 0.2 and 3.5 SD of the protein, either way, in both replicates (recomputed)
[1] = compound: CN1CCN(CCOc2cc(OC3CCOCC3)c3c(Nc4c(Cl)ccc5c4OCO5)ncnc3c2)CC1 [saracatinib]
How it was run: (§1)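 For each measurement, 10 μM compound was applied for 30 min to K562 cells at 2×10^6 cells/mL. Aliquots were heated for 3 min across 48°C-58°C, pooled, and extracted in PBS with 0.5% NP-40 at 4°C; the supernatant after 21,000xg for 90 min was soluble protein. This was quantified by TMTpro 16plex LC-MS/MS with channel sums equalised, and thermal stability was reported relative to control samples from duplicates, on a log2 fold-change scale.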

[2] = compound: CN1CCN(c2nc(C3=C(c4c[nH]c5ccccc45)C(=O)NC3=O)c3ccccc3n2)CC1 [sotrastaurin]
How it was run: as §1

[3] = compound: CN1CCc2c(c3ccccc3n2Cc2ccc(C(=O)NO)cc2)C1 [Tubastatin A]
How it was run: as §1

[4] = compound: CNC(=O)c1ccc(Nc2ncc(C(F)(F)F)c(NCc3nccnc3N(C)S(C)(=O)=O)n2)cc1 [defactinib]
How it was run: as §1

[5] = compound: CNCc1ccc(-c2[nH]c3cc(F)cc4c3c2CCNC4=O)cc1 [rucaparib]
How it was run: as §1

[6] = compound: CNc1nc(-c2ccc3c(N)n[nH]c3c2)cc(N2C[C@@H](C(=O)NC3CCCCC3)CC[C@H]2C)n1
How it was run: as §1

[7] = compound: COC(=O)N[C@@H](C)CNc1nccc(-c2cn(C(C)C)nc2-c2cc(Cl)cc(NS(C)(=O)=O)c2F)n1 [encorafenib]
How it was run: as §1

[8] = compound: COC(=O)[C@H](CCSC)NC(=O)C1=C(C=C(C=C1)NC[C@H](CS)N)C2=CC=CC=C2
How it was run: as §1

[9] = compound: CON(C)C(=O)N1N=C(c2cc(F)ccc2F)S[C@@]1(CCCN)c1ccccc1 [filanesib]
How it was run: as §1

[10] = compound: COc1cc(C(=O)O)ccc1NC(=O)[C@@H]1N[C@@H](CC(C)(C)C)[C@](C#N)(c2ccc(Cl)cc2F)[C@H]1c1cccc(Cl)c1F [idasanutlin]
How it was run: as §1

[11] = compound: COc1cc2nc(-c3cc(F)ccc3O)nc(N[C@@H]3CNC[C@H]3C(C)(C)O)c2cc1OC
How it was run: as §1

[12] = compound: CS(=O)(=O)CCNCc1ccc(-c2ccc3ncnc(Nc4ccc(OCc5cccc(F)c5)c(Cl)c4)c3c2)o1 [lapatinib]
How it was run: as §1

[13] = compound: CNC(=O)C1=CC=CC=C1NC2=NC(=NC=C2Cl)NC3=C(C=C(C=C3)N4CCOCC4)OC
How it was run: as §1

[14] = compound: COC1=CC=C(C=C1)CN2C=CC3=C2C=C(C=C3)C(=O)NO
How it was run: as §1

[15] = compound: CO[C@H]1C[C@@H]2CC[C@@H](C)[C@@](O)(O2)C(=O)C(=O)N2CCCC[C@H]2C(=O)O[C@H]([C@H](C)C[C@@H]2CC[C@H](n3cnnn3)[C@H](OC)C2)CC(=O)[C@H](C)/C=C(\C)[C@@H](O)[C@@H](OC)C(=O)[C@H](C)C[C@H](C)/C=C/C=C/C=C/1C [zotarolimus]
How it was run: as §1

[16] = compound: COc1cc(Nc2ncc3c(n2)-c2ccc(Cl)cc2C(c2c(F)cccc2OC)=NC3)ccc1C(=O)O [alisertib]
How it was run: as §1

[17] = compound: COc1cc2ncnc(Nc3ccc(F)c(Cl)c3)c2cc1OCCCN1CCOCC1 [gefitinib]
How it was run: as §1

[18] = compound: COc1cccc2cc(-c3nc([C@H]4CC[C@H](C(=O)O)CC4)n4ncnc(N)c34)[nH]c12
How it was run: as §1

[19] = compound: CS(=O)(=O)N1CCN(Cc2cc3nc(-c4cccc5[nH]ncc45)nc(N4CCOCC4)c3s2)CC1 [pictilisib]
How it was run: as §1

[20] = compound: CN1CC[C@H](c2c(O)cc(O)c3c(=O)cc(-c4ccccc4Cl)oc23)[C@H](O)C1 [alvocidib]
How it was run: as §1

| Target | log2 fold change [1] | log2 fold change [2] | log2 fold change [3] | log2 fold change [4] | log2 fold change [5] | log2 fold change [6] | log2 fold change [7] | log2 fold change [8] | log2 fold change [9] | log2 fold change [10] | log2 fold change [11] | log2 fold change [12] | log2 fold change [13] | log2 fold change [14] | log2 fold change [15] | log2 fold change [16] | log2 fold change [17] | log2 fold change [18] | log2 fold change [19] | log2 fold change [20] |
| --- | --- | --- | --- | --- | --- | --- | --- | --- | --- | --- | --- | --- | --- | --- | --- | --- | --- | --- | --- | --- |
| PSMB5 isoform 3 (UniProt P28074) | inactive: -0.158 | inactive: 0.152 | inactive: -0.011 | inactive: 0.065 | inactive: 0.058 | inactive: 0.007 | inactive: -0.206 | inactive: 0.058 | inactive: 0.127 | inactive: 0.022 | inactive: 0.185 | inactive: -0.522 |  |  |  |  |  |  |  |  |
| PSMD5 (UniProt Q16401) | inactive: 0.019 | inactive: -0.014 | inactive: -0.037 | inactive: -0.049 | inactive: -0.045 | inactive: -0.028 | inactive: 0.008 | inactive: 0.031 | inactive: -0.046 | inactive: -0.055 | inactive: -0.017 | inactive: 0.017 | inactive: 0.016 | inactive: 0.024 | inactive: 0.013 | inactive: -0.055 | inactive: -0.013 | inactive: 0 | inactive: -0.017 |  |
| PTGR2 (UniProt Q8N8N7) | inactive: 0.021 | inactive: 0.009 | inactive: 0.046 | inactive: -0.025 | inactive: 0.007 | inactive: 0.136 | inactive: -0.107 | inactive: -0.043 | inactive: -0.155 | inactive: 0.122 | inactive: -0.04 | inactive: 0.125 | inactive: -0.052 | inactive: -0.13 | inactive: 0.195 | inactive: -0.03 | inactive: 0.035 | inactive: 0 | inactive: 0.313 |  |
| PSMD11 (UniProt O00231) | inactive: -0.065 | inactive: -0.051 | inactive: 0.077 | inactive: 0.059 | inactive: 0.039 | inactive: 0.041 | inactive: 0.042 | inactive: -0.05 | inactive: -0.011 | inactive: 0.004 | inactive: -0.052 | inactive: 0.086 | inactive: 0.013 | inactive: 0.018 | inactive: 0.028 | inactive: -0.058 | inactive: -0.043 | inactive: -0.071 | inactive: 0.003 |  |
| PTS (UniProt Q03393) | inactive: 0.058 |  | inactive: 0.265 | inactive: -0.092 | inactive: -0.034 | inactive: 0.075 | inactive: 0.007 | inactive: -0.04 |  | inactive: -0.018 | inactive: -0.037 | inactive: -0.044 | inactive: -0.065 | inactive: -0.193 | inactive: 0.003 | inactive: 0.019 | inactive: 0.01 | inactive: 0.021 | inactive: 0.109 | inactive: -0.081 |
| PTK2B (UniProt Q14289) | inactive: 0.163 | inactive: -0.104 | inactive: 0.078 | inactive: 0.36 |  | inactive: -0.034 |  | inactive: -0.155 | inactive: -0.077 | inactive: 0.026 | inactive: 0.345 | inactive: -0.022 | inactive: 0.309 | inactive: 0.083 | inactive: 0.019 | inactive: 0.064 | inactive: -0.011 | inactive: -0.057 | inactive: 0.117 |  |
| PSMD6 (UniProt Q15008) | inactive: -0.044 | inactive: -0.035 | inactive: 0.025 | inactive: 0.046 | inactive: 0.051 | inactive: 0.062 | inactive: 0.056 | inactive: -0.021 | inactive: 0.042 | inactive: -0.013 | inactive: -0.062 | inactive: 0.102 | inactive: 0.013 | inactive: -0.02 | inactive: 0.017 | inactive: -0.091 | inactive: -0.021 | inactive: -0.045 | inactive: -0.036 |  |
| QRSL1 (UniProt Q9H0R6) | inactive: 0.033 | inactive: 0.003 | inactive: 0.01 | inactive: -0.105 | inactive: -0.047 | inactive: 0.038 | inactive: -0.017 | inactive: -0.033 | inactive: -0.087 | inactive: -0.128 | inactive: -0.005 | inactive: 0.003 | inactive: -0.023 | inactive: -0.01 | inactive: -0.028 | inactive: 0.022 | inactive: -0.007 | inactive: 0.017 | inactive: 0.06 |  |
| PSMC1 (UniProt P62191) | inactive: -0.062 | inactive: -0.022 | inactive: -0.009 | inactive: 0.083 | inactive: 0.043 | inactive: 0.024 | inactive: 0.022 | inactive: -0.001 | inactive: 0.03 | inactive: 0.009 | inactive: -0.018 | inactive: 0.054 | inactive: -0.019 | inactive: -0.062 | inactive: -0.013 | inactive: -0.049 | inactive: -0.05 | inactive: -0.015 | inactive: -0.006 |  |
| PTDSS1 (UniProt P48651) | inactive: -0.011 | inactive: 0.006 | inactive: 0.048 | inactive: 0.13 | inactive: 0.292 | inactive: 0.07 | inactive: 0.224 | inactive: 0.01 | inactive: 0.075 | inactive: 0.124 | inactive: -0.071 | inactive: 0.04 | inactive: -0.065 | inactive: -0.015 | inactive: 0.053 | inactive: -0.098 | inactive: 0.041 | inactive: -0.012 | inactive: -0.098 |  |
| PURA (UniProt Q00577) | inactive: 0.061 | inactive: 0.063 | inactive: 0.001 | inactive: 0.347 | inactive: 0.309 | inactive: 0.076 | inactive: 0.086 | inactive: 0.04 | inactive: 0.277 | inactive: 0.179 | inactive: -0.052 | inactive: 0.104 | inactive: 0.059 | inactive: -0.336 | inactive: -0.093 | inactive: -0.106 | inactive: -0.024 | inactive: -0.113 | inactive: -0.071 |  |
| PSMB6 (UniProt P28072) | inactive: -0.027 | inactive: -0.017 | inactive: 0.019 | inactive: 0.089 | inactive: -0.043 | inactive: 0.011 | inactive: 0.03 | inactive: 0.017 | inactive: 0.075 | inactive: 0.044 | inactive: -0.014 | inactive: 0.035 | inactive: -0.022 | inactive: -0.055 | inactive: -0.018 | inactive: -0.062 | inactive: -0.027 | inactive: 0.018 | inactive: -0.017 |  |
| PSPC1 (UniProt Q8WXF1) | inactive: 0.007 | inactive: -0.062 | inactive: 0.041 | active: -0.342 | inactive: 0.002 | inactive: -0.011 | inactive: 0.03 | inactive: -0.028 | inactive: 0.048 | inactive: 0.03 | inactive: -0.146 | inactive: 0.152 | inactive: -0.036 | inactive: 0.008 | inactive: 0.026 | inactive: -0.084 | inactive: 0.061 | inactive: -0.042 | inactive: -0.081 |  |
| PYGB (UniProt P11216) | inactive: 0.012 | inactive: -0.142 | inactive: -0.003 | inactive: -0.091 | inactive: -0.004 | inactive: -0.042 | inactive: 0.024 | inactive: -0.009 | inactive: 0.035 | inactive: -0.013 | active: 0.237 | inactive: -0.223 | active: -0.391 | inactive: -0.024 | inactive: -0.023 | inactive: -0.019 | inactive: -0.037 | inactive: 0.028 | inactive: -0.164 |  |
| PTPMT1 (UniProt Q8WUK0) | inactive: -0.037 | inactive: -0.059 | inactive: -0.063 | inactive: -0.07 | inactive: -0.118 | inactive: -0.019 | inactive: 0.044 | inactive: 0.045 | inactive: -0.26 | inactive: -0.002 | active: -0.327 | inactive: -0.064 | inactive: 0.027 | inactive: -0.084 | inactive: -0.027 | inactive: 0.006 | inactive: -0.021 | inactive: 0.034 | inactive: 0.02 |  |
| PSMB4 (UniProt P28070) | inactive: -0.012 | inactive: 0.026 | inactive: -0.002 | inactive: 0.038 | inactive: 0.019 | inactive: -0.032 | inactive: 0.011 | inactive: 0.006 | inactive: 0.034 | inactive: -0.012 | inactive: -0.074 | inactive: 0.03 | inactive: -0.031 | inactive: -0.033 | inactive: -0.011 | inactive: -0.031 | inactive: -0.038 | inactive: 0.005 | inactive: -0.026 |  |
| PTEN isoform 2 (UniProt P60484) |  |  |  |  | inactive: -0.108 |  | inactive: 0.015 |  |  |  | inactive: -0.251 | inactive: 0.094 | inactive: -0.247 | inactive: 0.081 |  |  |  |  | inactive: -0.028 |  |
| PTGER3 isoform 2 (UniProt P43115) |  |  |  |  |  |  |  |  |  | inactive: 0.14 |  |  | inactive: 0.08 | inactive: -0.039 |  |  |  |  |  |  |

A different layout for part of the listing above.
Target,log2 fold change [1],log2 fold change [2],log2 fold change [3],log2 fold change [4],log2 fold change [5],log2 fold change [6],log2 fold change [7],log2 fold change [8],log2 fold change [9],log2 fold change [10],log2 fold change [11],log2 fold change [12],log2 fold change [13],log2 fold change [14],log2 fold change [15],log2 fold change [16],log2 fold change [17],log2 fold change [18],log2 fold change [19],log2 fold change [20]
PSMC1 (UniProt P62191),inactive: -0.062,inactive: -0.022,inactive: -0.009,inactive: 0.083,inactive: 0.043,inactive: 0.024,inactive: 0.022,inactive: -0.001,inactive: 0.03,inactive: 0.009,inactive: -0.018,inactive: 0.054,inactive: -0.019,inactive: -0.062,inactive: -0.013,inactive: -0.049,inactive: -0.05,inactive: -0.015,inactive: -0.006,
PTDSS1 (UniProt P48651),inactive: -0.011,inactive: 0.006,inactive: 0.048,inactive: 0.13,inactive: 0.292,inactive: 0.07,inactive: 0.224,inactive: 0.01,inactive: 0.075,inactive: 0.124,inactive: -0.071,inactive: 0.04,inactive: -0.065,inactive: -0.015,inactive: 0.053,inactive: -0.098,inactive: 0.041,inactive: -0.012,inactive: -0.098,
